{"source": "patent US5889018A", "about": "“Heterocyclic compounds, pharmaceutical compositions comprising them and process for the preparation thereof” (Egis Gyogyszergyar RT., priority 1994, dated 1999)", "key": {"in vivo": {"experiment": "in vivo", "settings": "mouse, ip, NMRI mice, 7 days observation", "experimental": "White mice belonging to the NMRI strain (body weight 20 to 25 g. both male and female) were used, 6 animals for each dose. The test compound was administered orally in a volume of 20 ml/kg, the maximum oral and intraperitoneal doses were 1000 mg/kg and 300 mg/kg, respectively. […] The mice were kept under usual laboratory conditions."}, "[1]": {"test_system": "White mice belonging to the NMRI strain", "settings": "literary data, 10080 min; cited from earlier work"}}, "data": [{"smiles": "CN1C(=O)CN=C(c2ccccc2)c2cc(Cl)ccc21", "note": "[Diazepam, reference compound]", "values": [{"measurement": "LD50 at 168 h", "setting": "in vivo", "result": "> 300", "unit": "mg/kg"}, {"measurement": "LD50 (mg/kg, p.o.)", "setting": "[1]", "result": 780, "unit": "mg/kg"}]}]}
